# Laboratory results from US20100168125A1, “INDOLIZINES AND AZA-ANALOG DERIVATIVES THEREOF AS CNS ACTIVE COMPOUNDS” (priority 2007, published 2010).
# By UniProt entry, the sequences of proteins in these tests, tags left out.
# UniProt P50129, whole entry: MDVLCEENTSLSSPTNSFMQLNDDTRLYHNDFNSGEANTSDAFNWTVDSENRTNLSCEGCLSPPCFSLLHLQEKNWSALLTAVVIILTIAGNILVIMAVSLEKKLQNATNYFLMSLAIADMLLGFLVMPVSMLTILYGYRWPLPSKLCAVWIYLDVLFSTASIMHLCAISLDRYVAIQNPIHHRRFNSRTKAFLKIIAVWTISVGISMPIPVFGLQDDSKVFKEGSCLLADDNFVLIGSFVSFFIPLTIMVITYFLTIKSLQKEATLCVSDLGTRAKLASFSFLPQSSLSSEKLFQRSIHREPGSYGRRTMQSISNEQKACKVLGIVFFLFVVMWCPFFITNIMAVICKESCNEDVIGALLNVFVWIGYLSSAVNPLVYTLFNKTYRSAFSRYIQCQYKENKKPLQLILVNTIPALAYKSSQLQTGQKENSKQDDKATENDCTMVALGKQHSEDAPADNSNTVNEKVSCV
# pKi: −log10 of the molar value.
# Columns and labels:
# 5-HT1A receptor = molecular target: T1, 5-HT1A receptor (Sus scrofa, UniProt A0A4X1UTF5); test: radioligand binding, porcine cortical membranes, [^3H]8-OH-DPAT and [^3H]WAY 100635; details: Ki 5-HT1a
# T1 construct: membrane preparations from porcine cortical material; from tissue; host or cells: porcine cerebral cortex membranes
# T1 sequence (A0A4X1UTF5 1-422): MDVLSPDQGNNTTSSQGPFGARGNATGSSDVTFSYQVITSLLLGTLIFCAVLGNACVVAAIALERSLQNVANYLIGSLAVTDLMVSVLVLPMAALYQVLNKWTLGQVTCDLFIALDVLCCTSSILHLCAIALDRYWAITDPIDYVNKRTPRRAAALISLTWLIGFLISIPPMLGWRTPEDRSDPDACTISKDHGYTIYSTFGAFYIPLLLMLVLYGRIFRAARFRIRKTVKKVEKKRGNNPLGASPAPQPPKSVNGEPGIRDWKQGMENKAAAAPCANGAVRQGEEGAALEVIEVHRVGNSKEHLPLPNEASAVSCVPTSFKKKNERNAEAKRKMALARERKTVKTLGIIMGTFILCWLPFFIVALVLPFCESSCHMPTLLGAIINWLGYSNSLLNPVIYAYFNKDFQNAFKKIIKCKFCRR
# 5-HT2 receptor = molecular target: T2, 5-HT2 receptor (Sus scrofa, UniProt P50129); test: radioligand binding, porcine cortical membranes, [^3H]ketanserin
# T2 construct: membrane preparations from porcine cortical material; from tissue; host or cells: porcine cerebral cortex membranes
compound,measurement,setting,value
"O=C1CCc2ccc(OCCCCN3CCN(c4cccc(Cl)c4Cl)CC3)cc2N1 [aripiprazole, reference compound]",pKi,5-HT1A receptor,6.52 to 7.52
same,pKi,5-HT2 receptor,5.52 to 6.52
